In paper PMC10042821:
Results are given in words; binding and its absence hold for the method and conditions named.

The chains behind the UniProt entries cited, without tags or fusion partners. Where a name states a change or a piece, a line headed by the entry shows the natural chain unless it says otherwise. Residues count along the entry.
UniProt P49366: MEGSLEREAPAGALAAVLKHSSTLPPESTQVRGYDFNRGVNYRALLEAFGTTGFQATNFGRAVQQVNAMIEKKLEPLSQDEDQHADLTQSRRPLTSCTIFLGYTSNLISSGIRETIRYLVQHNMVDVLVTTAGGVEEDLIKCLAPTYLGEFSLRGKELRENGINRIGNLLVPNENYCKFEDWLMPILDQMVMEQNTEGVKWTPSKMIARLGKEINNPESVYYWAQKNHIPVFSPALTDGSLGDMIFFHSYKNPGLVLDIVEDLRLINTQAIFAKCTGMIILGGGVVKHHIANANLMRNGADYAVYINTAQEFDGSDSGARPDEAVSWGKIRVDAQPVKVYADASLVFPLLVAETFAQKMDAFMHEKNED
UniProt P63241, residues 15-151: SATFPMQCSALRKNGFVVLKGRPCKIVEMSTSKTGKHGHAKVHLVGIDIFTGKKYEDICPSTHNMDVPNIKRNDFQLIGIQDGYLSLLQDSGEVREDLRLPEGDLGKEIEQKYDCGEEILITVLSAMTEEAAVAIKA

Key:
Test in all cases: MST; His-tagged DHS variants labelled with RED-tris-NTA 2nd Generation, 8.32 nM; eIF5A titrated, sixteen dilutions 0.00175–57.5 μM; 50 mM Tris, 200 mM NaCl, 5 mM β-ME pH 8; Monolith NT.115, 40% excitation power, 60% MST power; no NAD or SPD; both purified
[1] = target: deoxyhypusine synthase Y250A, His-tagged (human) (UniProt P49366)
[2] = target: deoxyhypusine synthase Q83A, His-tagged (human) (UniProt P49366)
[3] = target: deoxyhypusine synthase M244A, His-tagged (human) (UniProt P49366)
[4] = target: deoxyhypusine synthase N173A, His-tagged (human) (UniProt P49366)
[5] = target: deoxyhypusine synthase F247A, His-tagged (human) (UniProt P49366)

- binding [1]: no binding (tested: > 5 µM)
- binding [2]: no binding (tested: > 5 µM)
- binding [3]: no binding (tested: > 5 µM)
- binding [4]: no binding (tested: > 5 µM)
- binding [5]: no binding (tested: > 5 µM)
Substance: eukaryotic translation factor 5A (eIF5A-1), residues 15-151 (from UniProt P63241 15-151) (domain or fragment)
